Reference: article PMC9893541
Results are given in words; binding and its absence hold for the method and conditions named. Some entries that bind do so weakly or less than the wild type. For some assays here: Tags and fused reporters may be left off the sequences shown.

The chains behind the UniProt entries cited, without tags or fusion partners. Residues count along the entry.
UniProt P37023, residues 22-118: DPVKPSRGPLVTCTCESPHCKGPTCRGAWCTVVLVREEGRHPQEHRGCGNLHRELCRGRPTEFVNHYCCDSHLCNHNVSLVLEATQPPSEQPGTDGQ

What was measured:
[1] = molecular target: FC-(Alk1)2 (UniProt P37023); assay: SPR; BIAcore T-200; chimeric Fc-type 1 receptor coupled to a Series S Protein A chip; ligands 6.25-0.049 nM flowed at 50 uL/min, 300 s association, 1000 s dissociation; 20 mM HEPES pH 7.4, 350 mM NaCl, 0.005 % P-20, 0.5 mg/mL BSA, 3.4 mM EDTA; kinetic 1:1 fit (also a bivalent fit); apparent KD = kd/ka; average of N=2; both purified
[2] = molecular target: T1, FC-(Alk2)2 (UniProt Q04771); assay: as above
T1 sequence: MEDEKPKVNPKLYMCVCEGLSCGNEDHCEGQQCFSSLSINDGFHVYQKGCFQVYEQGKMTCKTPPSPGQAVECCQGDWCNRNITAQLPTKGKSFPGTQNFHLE

binding [1]: binds weakly
binding [2]: binds weakly
B1: BMP4 homodimer (ligand, UniProt P12644 293-408)
chain: MSPKHHSQRARKKNKNCRRHSLYVDFSDVGWNDWIVAPPGYQAFYCHGDCPFPLADHLNSTNHAIVQTLVNSVNSSIPKACCVPTELSAISMLYLDEYDKVVLKNYQEMVVEGCGCR
